In PMC7819943, “Rice protein-binding microarrays: a tool to detect cis-acting elements near promoter regions in rice”:
This is one part of the list.

Sequences of proteins named here, by UniProt entry; tags and fusion partners are left off.
UniProt Q0JBA9, entry or part of it: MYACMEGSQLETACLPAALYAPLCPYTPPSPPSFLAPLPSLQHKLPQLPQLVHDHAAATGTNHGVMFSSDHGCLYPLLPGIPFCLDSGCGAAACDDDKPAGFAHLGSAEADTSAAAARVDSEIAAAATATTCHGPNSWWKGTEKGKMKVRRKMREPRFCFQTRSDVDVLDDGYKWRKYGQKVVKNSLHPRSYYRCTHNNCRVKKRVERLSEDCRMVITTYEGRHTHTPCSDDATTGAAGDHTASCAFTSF

target: OsWRKY34 (Oryza sativa, UniProt Q0JBA9 1-250); test: protein-binding microarray (RPBM); PBS, 2% BSA, 51.3 ng/ul salmon testes DNA, 50 uM zinc acetate, 200 nM TF, 25 C, 1 h; high values mean tight binding; settings: protein: recombinant; tags: N-terminal polyhistidine and DsRed monomer fusion (pET32a); label: CyDye5-dUTP incorporated in the synthesized complementary strand; 3' TTTTT single-stranded linker to array surface; dsDNA, one strand shown
Outline: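 The binding signal is fluorescence intensity per feature, in arbitrary units, read on an Axon 4000B scanner. Polyhistidine- and DsRed-tagged transcription factors (N-terminal fusions) from E. coli BL21-CodonPlus were purified on Ni–NTA and applied at 200 nM for 1 h at 25 °C to a double-stranded, BSA-blocked custom Agilent array in buffer with 50 µM zinc acetate.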

Sequence | binding signal
ATAATTGTCCTCTTGCACTCTTCATCTTGCCATGATTCAACGGAGTCACCTAGTGCAG | 11900 fluorescence intensity (a.u.)
ACGTCCACCACCACCTCATCCTCCACCTCCACCATTGATTCGGAGTCACCTAGTGCAG | 11700 fluorescence intensity (a.u.)
TACACCACAGTAGCTGTCATCTCCTTATTTCACATTAGCTCGGAGTCACCTAGTGCAG | 12900 fluorescence intensity (a.u.)
GATCCGCTCAAAATCGCGCATCCAAACCCTCGCCCTCCTCCGGAGTCACCTAGTGCAG | 9040 fluorescence intensity (a.u.)
CCGAAATGCAGAGATTCATATCCATCCTTTGCCGCTTTTCCGGAGTCACCTAGTGCAG | 9420 fluorescence intensity (a.u.)
GCTGCTGTTCTTCGTATTTATTGCACCGTTTTTGCTACGCCGGAGTCACCTAGTGCAG | 11600 fluorescence intensity (a.u.)
CCACACACACACACACAAAAAAAAAAACCTCACGCGCGATCGGAGTCACCTAGTGCAG | 9140 fluorescence intensity (a.u.)
GATGCGCCGAAATTGTATTGAACGTGTGTGTGTTTTTTATCGGAGTCACCTAGTGCAG | 12400 fluorescence intensity (a.u.)
GTCCACACACATGTACGTCGCGCTACGCGCCCGCGGCGCCCGGAGTCACCTAGTGCAG | 8410 fluorescence intensity (a.u.)
AATTTAGACTGTTTGGATTTCATCTTATTTGTTTTTTTTCCGGAGTCACCTAGTGCAG | 10800 fluorescence intensity (a.u.)
ATCTCGCCGCCGCTGCCGCCTTGTTCCCCTGCTCCCGCGTCGGAGTCACCTAGTGCAG | 8100 fluorescence intensity (a.u.)
CGCCGCCGCCTGTATGTCCATATGCTCCACCGTCTTCGTCCGGAGTCACCTAGTGCAG | 10500 fluorescence intensity (a.u.)
GGCCCACATATCAGTCACTACGTTCCTCTGACTTTACGTCCGGAGTCACCTAGTGCAG | 9430 fluorescence intensity (a.u.)
CATTTCTCTTCTGAAGCCTCCGGTCATCTTCAACGGACTCCGGAGTCACCTAGTGCAG | 8240 fluorescence intensity (a.u.)
CAGGGATGGTTAACGAGTATTAGAGGTTTGTGTGGGACTTCGGAGTCACCTAGTGCAG | 9420 fluorescence intensity (a.u.)
CACAGTTTCTCTCTGGCCGGTGGGTCTGCTTTATTCTGAACGGAGTCACCTAGTGCAG | 11100 fluorescence intensity (a.u.)
TCGGTCGGTACTCAGTTCTTTGCCAACTACCACTGTATAACGGAGTCACCTAGTGCAG | 8690 fluorescence intensity (a.u.)
AGTTCAGCAATCCTCTGCTTTTGTCAGTTGTAGTTCACAACGGAGTCACCTAGTGCAG | 9030 fluorescence intensity (a.u.)
CAAATATATTGCTATTGCAGTTTTCCCACATTTTGCCTTTCGGAGTCACCTAGTGCAG | 8030 fluorescence intensity (a.u.)
AAATGTATTTATTTTTTTTCTACTCCCTCCGCCCCTTAATCGGAGTCACCTAGTGCAG | 8590 fluorescence intensity (a.u.)
TTGGTGCATTTTGATGTTTTTTCTCTTGTAACTTTTATTCCGGAGTCACCTAGTGCAG | 12600 fluorescence intensity (a.u.)

Sequence | binding signal
ATCTTGTTCCTTTTTTACCTGCATGCTATGTTCCTATTAACGGAGTCACCTAGTGCAG | 15200 fluorescence intensity (a.u.)
TCCGGGCCCCGCTTAGATGTGGGCCCACCGGGTCATTGACCGGAGTCACCTAGTGCAG | 9560 fluorescence intensity (a.u.)
GCCCTACAAATCTCGCGCCGCCGCCGCTGCTCTGCTTTCTCGGAGTCACCTAGTGCAG | 13800 fluorescence intensity (a.u.)
GGAGGTTAATTCGTACTTCTACAGTAGCAGGGGTAATTTTCGGAGTCACCTAGTGCAG | 11700 fluorescence intensity (a.u.)
GGGCTCTCTGCCTCTCTCTCTCTCTTGTCGCCACCAAAAACGGAGTCACCTAGTGCAG | 9620 fluorescence intensity (a.u.)
ACTCCATCTCCTTGCTGATTATGAATTCCAGCACCCTCATCGGAGTCACCTAGTGCAG | 11000 fluorescence intensity (a.u.)
GGACCAAACTTGCATTGCTGGAACTTTTTCTTTGGCTTGTCGGAGTCACCTAGTGCAG | 9900 fluorescence intensity (a.u.)
TCGGACTCCCACAAACAGGACCCTATACACATTCGACAGCCGGAGTCACCTAGTGCAG | 8620 fluorescence intensity (a.u.)
CCATGTGTCCTCCATTCTTGTACTTAATCTCTTCTTATTTCGGAGTCACCTAGTGCAG | 11000 fluorescence intensity (a.u.)
TCCTGCGCTACTCTGCCCACCGCGCTCGCCCGTCGTCGCTCGGAGTCACCTAGTGCAG | 9200 fluorescence intensity (a.u.)
CATTGATCCACTCATCGTTTGATTCACCTGTAACTGTAACCGGAGTCACCTAGTGCAG | 11100 fluorescence intensity (a.u.)
GCTGTCTTGTCTGCAGTCTGCACTCTCTGAATTCAGAAGTCGGAGTCACCTAGTGCAG | 9430 fluorescence intensity (a.u.)
TCTTACTTTATATTTCTTATTTGGTGCCATTGATCAATACCGGAGTCACCTAGTGCAG | 11800 fluorescence intensity (a.u.)
TCTTCCCTTTGAGGCTTTCACTCCTCTCGTTATAAAAGCACGGAGTCACCTAGTGCAG | 9730 fluorescence intensity (a.u.)
TCTCTCTCTCTCTCAATCCTCTCTGGACTCGTCCGACGGCCGGAGTCACCTAGTGCAG | 8220 fluorescence intensity (a.u.)
TGAAGCTTAGTTTTGTTGGCCATTCCATTGGGAACGTTATCGGAGTCACCTAGTGCAG | 10400 fluorescence intensity (a.u.)
CTGCCTCGCCCCGCCGGCCTCCTCCCGACCTACCGCCACCCGGAGTCACCTAGTGCAG | 8390 fluorescence intensity (a.u.)
CCCTTGTCGCCGGACGAATTGAAGCTCGCCGCCGCCGCCGCGGAGTCACCTAGTGCAG | 8480 fluorescence intensity (a.u.)
TTTATTGTTGTTTTTGGGTTGGTTTGGTTTGATTCCGATGCGGAGTCACCTAGTGCAG | 9120 fluorescence intensity (a.u.)
ATTATCGATACCCTTGTACCGTGTATCCTGCATTGTCTATCGGAGTCACCTAGTGCAG | 8020 fluorescence intensity (a.u.)
TGTTTATTCTCTTCCCATTTATCGATTGTTTCTTTTAAGTCGGAGTCACCTAGTGCAG | 8920 fluorescence intensity (a.u.)

Sequence | binding signal
TTTCAGTTTTATCCATTACGCCTATGCTTTGTTTTCCAATCGGAGTCACCTAGTGCAG | 11800 fluorescence intensity (a.u.)
GCCGCTCTCTCCAGATCTGCCAGCGCTCACCGCTCCTTCGCGGAGTCACCTAGTGCAG | 9390 fluorescence intensity (a.u.)
CGCGTCGCCATCGCTATCTCCTACCGGAATCTGGAACCCTCGGAGTCACCTAGTGCAG | 8190 fluorescence intensity (a.u.)
ACTATTTCTTCATGTTACATAATTCTCCTTGTTTAAGTCCCGGAGTCACCTAGTGCAG | 8390 fluorescence intensity (a.u.)
TATGTTGACAAATTTGAGGCGGTTTGTATCTTTCACTTTCCGGAGTCACCTAGTGCAG | 10600 fluorescence intensity (a.u.)
AGGTTATTCCCCGCTTACCTATTTCTTTTTTTTTATTTTGCGGAGTCACCTAGTGCAG | 12500 fluorescence intensity (a.u.)
CTCGAGTATAAATAGAGAGGGAGGGTGTGATTTTCCGGTACGGAGTCACCTAGTGCAG | 8160 fluorescence intensity (a.u.)
GGGTGGGTGGAGACTGGAGAGTCCTCTCCGCGAGAGGCTGCGGAGTCACCTAGTGCAG | 8410 fluorescence intensity (a.u.)
TCCTTGTACCGTGCCTTCGGGATGATTGAATTCACCAATGCGGAGTCACCTAGTGCAG | 8830 fluorescence intensity (a.u.)
GTACAACCCTTTTTGCATCATTTTGCCAACCCAAACCCTACGGAGTCACCTAGTGCAG | 8330 fluorescence intensity (a.u.)
AAATGTTTGACACCGTTGATTTTTTAGCGCATGTTTGACCCGGAGTCACCTAGTGCAG | 8840 fluorescence intensity (a.u.)
TACGCAAGTACCTCACATACTTTTTATCTCGTTGTTGAACCGGAGTCACCTAGTGCAG | 8200 fluorescence intensity (a.u.)
TTTGTCTTGACGCACACTTCACTTCTGCCGCGCCATTTTTCGGAGTCACCTAGTGCAG | 10900 fluorescence intensity (a.u.)
TCATCAGATCACTAATGGTTCTAGTTCCATATGCCCTTGTCGGAGTCACCTAGTGCAG | 8680 fluorescence intensity (a.u.)
CGAAAAAAAGTCACAGCCCTCATTGACTCGCATCTTCTTCCGGAGTCACCTAGTGCAG | 8360 fluorescence intensity (a.u.)
ATCTTCTTATTCATTCCTTCATTCTCCCTAGTGTGTATAACGGAGTCACCTAGTGCAG | 8750 fluorescence intensity (a.u.)
CTGTTCCAATTGTTCAGGTGGGTTTGGCAGTTACTTGTTTCGGAGTCACCTAGTGCAG | 11400 fluorescence intensity (a.u.)
GATCATCTGTTCCACCCGCCACCCGCCACCCGCCACAATCCGGAGTCACCTAGTGCAG | 13200 fluorescence intensity (a.u.)
TGGCTCTCTCGCTCCTATGTGGCTATGTCTGTCTACCTAACGGAGTCACCTAGTGCAG | 10800 fluorescence intensity (a.u.)
CCCCATTTAAATCCGTCTCGTTTCCCGCCGCAAATCCCAGCGGAGTCACCTAGTGCAG | 8760 fluorescence intensity (a.u.)
GAATTTCCATATCCAACATTTGATCTTATTTGAGATTTTTCGGAGTCACCTAGTGCAG | 8650 fluorescence intensity (a.u.)

5 entries picked at random from the list so far:
Sequence | binding signal
ATCTTCTTATTCATTCCTTCATTCTCCCTAGTGTGTATAACGGAGTCACCTAGTGCAG | 8750 fluorescence intensity (a.u.)
GGGTGGGTGGAGACTGGAGAGTCCTCTCCGCGAGAGGCTGCGGAGTCACCTAGTGCAG | 8410 fluorescence intensity (a.u.)
GTACAACCCTTTTTGCATCATTTTGCCAACCCAAACCCTACGGAGTCACCTAGTGCAG | 8330 fluorescence intensity (a.u.)
GATCATCTGTTCCACCCGCCACCCGCCACCCGCCACAATCCGGAGTCACCTAGTGCAG | 13200 fluorescence intensity (a.u.)
TACGCAAGTACCTCACATACTTTTTATCTCGTTGTTGAACCGGAGTCACCTAGTGCAG | 8200 fluorescence intensity (a.u.)

(continued)

Sequence | binding signal
CTCGAGGTCTTGATTAGCTTGTACAGTTTGTCCTCGAGCTCGGAGTCACCTAGTGCAG | 8710 fluorescence intensity (a.u.)
TTTTTTAACTTAAATCAGCGTGTGTACTATTTTTCTTTTACGGAGTCACCTAGTGCAG | 8630 fluorescence intensity (a.u.)
TGGGAATTGGGACCCACGCCCATGTATCAGTTCTTCGGTTCGGAGTCACCTAGTGCAG | 8330 fluorescence intensity (a.u.)
TGCCTCTGCGTCAGTCGCTGTCTGTAAACTGTCCGGCAATCGGAGTCACCTAGTGCAG | 8500 fluorescence intensity (a.u.)
CTCTCGTGTCACTGCCTCATCGGCCTGCCTGCTCTGCCCGCGGAGTCACCTAGTGCAG | 8420 fluorescence intensity (a.u.)
ATATATATGGTAATGGATGGGGATGGTTGCAGTGTTCAAGCGGAGTCACCTAGTGCAG | 9130 fluorescence intensity (a.u.)
TGCAGCTCGTGTCAAATTTCTGTCGTTTCTTTGAGCGAATCGGAGTCACCTAGTGCAG | 8610 fluorescence intensity (a.u.)
TTCACGGTTTCAGGACTCGGCCGCATCCCTCCTCGCCCACCGGAGTCACCTAGTGCAG | 8940 fluorescence intensity (a.u.)
GGTTGAGGGTGATGATTAGTAAGATACTGGGGATGCTCGACGGAGTCACCTAGTGCAG | 8780 fluorescence intensity (a.u.)
TTTCTTGGTAGTTCTATTTCCAATCACATATCTTCTTGAACGGAGTCACCTAGTGCAG | 9600 fluorescence intensity (a.u.)
CCCCACTCCCTCCACTCCGGCGGTTTCATCCTCCTGTCCTCGGAGTCACCTAGTGCAG | 8750 fluorescence intensity (a.u.)
AATCTGTAGCCCGCTGCTTTTCTCTCTTCTCATTTATTTTCGGAGTCACCTAGTGCAG | 15400 fluorescence intensity (a.u.)
CCATATCGTTTTGACGTTTTTAGTGTAGGTCAATTTATAGCGGAGTCACCTAGTGCAG | 8170 fluorescence intensity (a.u.)
CGTCCTCGTTGCGTCGGCGCCATCGTCTCCCACAGGCGTTCGGAGTCACCTAGTGCAG | 8760 fluorescence intensity (a.u.)
CCCCTACGGTTCAGTGGTATCACCGATTTCTCCTCATTGACGGAGTCACCTAGTGCAG | 9350 fluorescence intensity (a.u.)
GTGTCCAACGTTTCACCGTCTGTCTCATATAAAATTTTTTCGGAGTCACCTAGTGCAG | 12400 fluorescence intensity (a.u.)
TGCCAAGGACTGCATCTTCATCATTGCCTGGGTGTCCACCCGGAGTCACCTAGTGCAG | 8700 fluorescence intensity (a.u.)
ACTCACTTCTTCCAGATCCACGCTTACGCTTCCACACTCACGGAGTCACCTAGTGCAG | 15500 fluorescence intensity (a.u.)
CGCCATTCCGCACGCCGTGTCTTCCTCTCGTAAATCCCTCCGGAGTCACCTAGTGCAG | 9490 fluorescence intensity (a.u.)
CCCTACTACCAGTCTACCACACTATGACACTACCCAACACCGGAGTCACCTAGTGCAG | 8670 fluorescence intensity (a.u.)
CTAAAGCACCCTTATATTACCATGCTGCTAATTTTGTTGTCGGAGTCACCTAGTGCAG | 8040 fluorescence intensity (a.u.)

A section of the results above, for reference:
Sequence | binding signal
ACTCACTTCTTCCAGATCCACGCTTACGCTTCCACACTCACGGAGTCACCTAGTGCAG | 15500 fluorescence intensity (a.u.)
CGCCATTCCGCACGCCGTGTCTTCCTCTCGTAAATCCCTCCGGAGTCACCTAGTGCAG | 9490 fluorescence intensity (a.u.)
